Part of at least one peptide drawing is inferred or uncertain, most often the ends. Positions of bridges follow the written chain, without caps; N, C: chain ends. Non-standard residues stand in square brackets, D forms with d. Residues, ends and D or L forms follow the SMILES beside them. Chains are numbered I, II in the order given.
Experiments:
αvβ5 [1] = biological target: T1, αvβ5 (Homo sapiens, UniProt P06756+P18084); assay: Cell adhesion assay, αvβ5 overexpressing K562 cells (Kαvβ5) on vitronectin; format: cell-based; conditions: FIG. 3A; increasing concentrations
T1 construct: expressed in transfected cells; host or cells: K562 (human erythroleukemia), gift of Dr. S. D. Blystone

αIIbβ3 = biological target: T2, αIIbβ3 (Homo sapiens, UniProt P05106+P08514); assay: Cell adhesion assay, αIIbβ3 overexpressing K562 cells (KαIIbβ3) on fibrinogen after LM609 pre-incubation; format: cell-based; conditions: FIG. 3B; cells pre-incubated with LM609 monoclonal antibody; fibrinogen 10 μg/mL
T2 construct: expressed in transfected cells; host or cells: K562 (human erythroleukemia), gift of Dr. S. D. Blystone

αvβ5 [2] = biological target: T1, αvβ5; assay: Competition binding with 125I-labeled c(RGDyV) on αvβ5 overexpressing clones; conditions: large excess of unlabeled competitor, 1 h at 4° C.
αvβ3 [3] = biological target: T3, αvβ3 (Homo sapiens, UniProt P05106+P06756); assay: Cell adhesion assay, αvβ3 overexpressing K562 cells (Kαvβ3) on vitronectin; format: cell-based; parameters: expressed in transfected cells; host or cells: K562 (human erythroleukemia), gift of Dr. S. D. Blystone; conditions: FIG. 2; preincubated 1 h at 4° C., vitronectin-coated plates, adhesion 1 h at 37° C.; read-out: IC50 of representative inhibition curve, adhesion of Kαvβ3 cells
αvβ3 [4] = biological target: T3, αvβ3; assay: Competition binding with 125I-labeled c(RGDyV) on αvβ3 overexpressing cells; parameters: expressed in transfected cells; host or cells: K562 (human erythroleukemia), gift of Dr. S. D. Blystone; conditions: large excess of unlabeled competitor, 1 h at 4° C.

With `CSCC[C@H](NC(=O)CC[C@H]1NC(=O)[C@H](CC(=O)O)NC(=O)CNC(=O)[C@H](CCCNC(=N)N)NC(=O)[C@H](CCCCN)NC1=O)C(=O)N[C@@H](CC(=O)O)C(=O)N[C@@H](CC(=O)O)C(=O)N1CCC[C@H]1C(=O)NCC(=O)N[C@@H](CCCNC(=N)N)C(=O)N[C@@H](CC(N)=O)C(=O)N1CCC[C@H]1C(=O)N[C@@H](Cc1c[nH]cn1)C(=O)N[C@@H](CCCCN)C(=O)NCC(=O)N1CCC[C@H]1C(=O)N[C@@H](C)C(=O)N[C@H](C(=O)O)[C@@H](C)O` [RGDechi] (I: MDDPGRNPHKGPAT-OH / II: cyclo(KRGD[dE]); amide I:N-II:5; C-terminus assumed) the “inhibition of Kαvβ5 cell adhesion to vitronectin” value (αvβ5 [1]) was “did not show any significant inhibitory effect”, the “inhibition of adhesion of αIIbβ3 overexpressing cells to fibrinogen” value (αIIbβ3) was “did not show any significant inhibitory effect” and the “competition with 125I-labeled c(RGDyV) for binding to αvβ5 overexpressing clones” value (αvβ5 [2]) was “not to αvβ5 overexpressing clones”. The IC50 (αvβ3 [3]) was 880 nM and the “competition with 125I-labeled c(RGDyV) for binding to αvβ3 overexpressing cells” value (αvβ3 [4]) was “efficiently competes”.
